Experimental data: PubChem BioAssay AID212 (DTP/NCI, 2004)
The list shows only some results of the screen, not a fair sample: it is rich in T/C values a quarter to a half above the control, in often repeated tests (any T/C) and in doses without a T/C. Further doses and runs are listed elsewhere. T/C is the treated group as % of the vehicle group. Schedule codes are those of the source, taken here to give the interval after Q, in days (D) or hours (H), and the number of doses after X. Some T/C values are followed by the survivors on the day toxicity was checked, most often the fifth; without a count, all were alive then. Some doses were run more than once; the results are listed from low to high. Some doses have a count of surviving animals in place of a T/C: the source holds a T/C of zero for them, seemingly a mark for toxic or unscored doses. Counts of survivors are from the toxicity check (mostly the fifth day) where no day follows; animals may have died later.

Test system: BDF1 mice, colon carcinoma 38 sc, T/C %
Assay: NCI In Vivo Anticancer Drug Screen. Data for tumor model Colon Carcinoma 38 (subcutaneous) in B6D2F1 (BDF1) mice
Conditions: T/C endpoint: median tumor weight (est.), higher T/C = larger tumour
Outline: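 T/C readout: treated group (T) measurement over vehicle control group (C) measurement. Endpoint is survival or tumor size in mice bearing a transplanted tumor.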

[1] = dose: 400.0 mg/kg/injection, schedule: Q07DX002 (ip), vehicle: Klucel (hydroxypropylcellulose) (HPC)
[2] = dose: 200.0 mg/kg/injection, schedule: Q07DX002 (ip), vehicle: Klucel (hydroxypropylcellulose) (HPC), evaluated on day 20
[3] = dose: 100.0 mg/kg/injection, schedule: Q07DX002 (ip), vehicle: saline with Tween-80, evaluated on day 20
[4] = dose: 25.0 mg/kg/injection, schedule: Q07DX002 (ip), vehicle: Klucel (hydroxypropylcellulose) (HPC), evaluated on day 20
[5] = dose: 50.0 mg/kg/injection, schedule: Q07DX002 (ip), vehicle: Klucel (hydroxypropylcellulose) (HPC), evaluated on day 20
[6] = dose: 200.0 mg/kg/injection, schedule: Q07DX002 (ip), vehicle: Klucel (hydroxypropylcellulose) (HPC)

**Q.** `CCOC(=O)Nc1cc2c(c(N)n1)N=C(c1ccccc1)CN2` was tested. Which survivor count (dose: 20.0 mg/kg/injection, schedule: Q07DX002 (ip), vehicle: saline with Tween-80) did it give?
**A.** The survivor count was 4 of 10 on day 20.

**Q.** And the survivor count (dose: 40.0 mg/kg/injection, schedule: Q07DX002 (ip), vehicle: saline with Tween-80)?
**A.** Its survivor count is 0 of 10 on day 20.

**Q.** How did the survivor count (dose: 1600.0 mg/kg/injection, schedule: Q07DX002 (ip), vehicle: water) turn out when `O=C(NO)c1cc(O)c(O)c(O)c1` was run?
**A.** Its survivor count is 0 of 10 on day 20.

**Q.** What does the source list for `O=c1[nH]cccc1O`?
**A.** T/C (dose: 125.0 mg/kg/injection, schedule: Q07DX002 (ip), vehicle: saline with Tween-80, evaluated on day 20): 141 % of control; T/C (dose: 250.0 mg/kg/injection, schedule: Q07DX002 (ip), vehicle: saline with Tween-80, evaluated on day 20): 147 % of control; survivor count (dose: 1024.0 mg/kg/injection, schedule: Q07DX002 (ip), vehicle: saline with Tween-80): 1 of 10 on day 20

**Q.** How did the survivor count [1] turn out when `Cc1ccc(NCCN(C)C)c2c(=O)c3cc(O)ccc3sc12` was run?
**A.** Its survivor count is 4 of 10 on day 20 and 5 of 10 on day 20.

**Q.** For `NNC(=O)c1ccncc1`, which T/C (dose: 144.0 mg/kg/injection, schedule: Q07DX002 (ip), vehicle: saline, evaluated on day 20) is on record?
**A.** The T/C was 128 % of control.

**Q.** What about the survivor count (dose: 288.0 mg/kg/injection, schedule: Q07DX002 (ip), vehicle: saline) of the same molecule?
**A.** The survivor count was 4 of 10 on day 20.

**Q.** For `CCN1C=C/C(=C\C=C/c2cc[n+](CC)c3ccccc23)c2ccccc21`, which T/C (dose: 0.25 mg/kg/injection, schedule: Q07DX002 (ip), vehicle: saline, evaluated on day 20) is on record?
**A.** Its T/C is 127 % of control [9 of 10 alive].

**Q.** What about the T/C (dose: 0.5 mg/kg/injection, schedule: Q07DX002 (ip), vehicle: saline, evaluated on day 20) of the same molecule?
**A.** Its T/C is 144 % of control.

**Q.** And the T/C (dose: 500.0 micrograms/kg/injection, schedule: Q07DX002 (ip), vehicle: saline, evaluated on day 20)?
**A.** The T/C was 138 % of control.

**Q.** What about the T/C (dose: 1000.0 micrograms/kg/injection, schedule: Q07DX002 (ip), vehicle: saline, evaluated on day 20) of the same molecule?
**A.** Its T/C is 139 % of control [9 of 10 alive].

**Q.** With `CC(=O)C1=C(O)C2(O)C(=O)c3c(c(C)c4ccc(C)c(O)c4c3O)CC2C(N)C1=O` (stereo not drawn) as the molecule, how does the survivor count (dose: 120.0 mg/kg/injection, schedule: Q07DX002 (ip), vehicle: saline + alcohol) read?
**A.** Its survivor count is 3 of 10 on day 20.

**Q.** And the survivor count (dose: 240.0 mg/kg/injection, schedule: Q07DX002 (ip), vehicle: saline + alcohol)?
**A.** The survivor count was 0 of 10 on day 20.

**Q.** With `OCC1OC(n2cnc3c(NO)ncnc32)C(O)C1O` (stereo not drawn) as the molecule, how does the T/C (dose: 100.0 mg/kg/injection, schedule: Q07DX002 (ip), vehicle: Klucel (hydroxypropylcellulose) (HPC), evaluated on day 20) read?
**A.** The T/C was 125 and 126 % of control.

**Q.** What about the T/C [2] of the same molecule?
**A.** Its T/C is 126 % of control [8 of 10 alive on day 20].

**Q.** `CCCC(=O)O.CCCC(=O)O.CCCC(=O)O.CCCC(=O)O.[Rh].[Rh]` was tested. Which survivor count (dose: 2.0 mg/kg/injection, schedule: Q07DX002 (ip), vehicle: saline + alcohol) did it give?
**A.** The survivor count was 3 of 10 on day 20.

**Q.** What about the survivor count (dose: 4.0 mg/kg/injection, schedule: Q07DX002 (ip), vehicle: saline + alcohol) of the same molecule?
**A.** The survivor count was 1 of 10 on day 20.

**Q.** For `Cc1cc(NCCN(C(C)C)C(C)C)nc(/N=C(\N)Nc2ccc(Cl)c(C(F)(F)F)c2)n1`, which T/C (dose: 5.0 mg/kg/injection, schedule: Q07DX002 (ip), vehicle: Klucel (hydroxypropylcellulose) (HPC), evaluated on day 20) is on record?
**A.** Its T/C is 130 % of control.

**Q.** What about the survivor count (dose: 80.0 mg/kg/injection, schedule: Q07DX002 (ip), vehicle: Klucel (hydroxypropylcellulose) (HPC)) of the same molecule?
**A.** The survivor count was 1 of 10 on day 20.

**Q.** How did the T/C [3] turn out when `CCOC(=O)C(C)(C)Oc1ccc(Cl)cc1` was run?
**A.** The T/C was 127 % of control.

**Q.** What about the survivor count (dose: 100.0 mg/kg/injection, schedule: Q07DX002 (ip), vehicle: saline with Tween-80) of the same molecule?
**A.** Its survivor count is 5 of 10 on day 20.

**Q.** What about the survivor count (dose: 200.0 mg/kg/injection, schedule: Q07DX002 (ip), vehicle: saline with Tween-80) of the same molecule?
**A.** The survivor count was 5 of 10 on day 20.

**Q.** And the survivor count (dose: 400.0 mg/kg/injection, schedule: Q07DX002 (ip), vehicle: saline with Tween-80)?
**A.** The survivor count was 1 of 10 on day 20.

**Q.** And the survivor count (dose: 800.0 mg/kg/injection, schedule: Q07DX002 (ip), vehicle: saline with Tween-80)?
**A.** Its survivor count is 1 of 10 on day 20.

**Q.** Which results are given for `Cc1ccc(S(=O)(=O)N/N=C/C(Br)=C(/Br)C(=O)O)cc1`?
**A.** T/C (dose: 12.5 mg/kg/injection, schedule: Q07DX002 (ip), vehicle: Klucel (hydroxypropylcellulose) (HPC), evaluated on day 20): 127 and 140 % of control; T/C [4]: 131 % of control; T/C [2]: 126 % of control; survivor count [1]: 6 of 10 on day 20

**Q.** With `c1ccc([P+](c2ccccc2)(c2ccccc2)c2ccccc2)cc1` as the molecule, how does the survivor count (dose: 12.0 mg/kg/injection, schedule: Q07DX002 (ip), vehicle: saline) read?
**A.** The survivor count was 3 of 10 on day 20.

**Q.** What about the survivor count (dose: 12.0 mg/kg/injection, schedule: Q07DX003 (ip), vehicle: saline) of the same molecule?
**A.** Its survivor count is 2 of 10 on day 20.

**Q.** And the survivor count (dose: 24.0 mg/kg/injection, schedule: Q07DX002 (ip), vehicle: saline)?
**A.** The survivor count was 0 of 10 on day 20.

**Q.** And the survivor count (dose: 24.0 mg/kg/injection, schedule: Q07DX003 (ip), vehicle: saline)?
**A.** The survivor count was 0 of 10 on day 20.

**Q.** What does the source list for `CCOC(=O)c1ccc(NC(=O)Nc2nncs2)cc1`?
**A.** T/C (dose: 12.5 mg/kg/injection, schedule: Q07DX002 (ip), vehicle: distilled water + Tween-80, evaluated on day 20): 136 % of control [9 of 10 alive]; T/C (dose: 50.0 mg/kg/injection, schedule: Q07DX002 (ip), vehicle: distilled water + Tween-80, evaluated on day 20): 127 % of control; T/C (dose: 400.0 mg/kg/injection, schedule: Q07DX002 (ip), vehicle: distilled water + Tween-80, evaluated on day 20): 140 and 148 % of control [8 of 10 alive]

**Q.** For `C=Cc1cnc([N+](=O)[O-])n1C`, which T/C [5] is on record?
**A.** Its T/C is 149 % of control.

**Q.** And the survivor count [1]?
**A.** The survivor count was 0 of 10 on day 20 and 1 of 10 on day 20.

**Q.** Which results are given for `C=C1C(=O)C23C(O)CC4C5(C)CCCC4(C(O)OC5)C2C(OC(C)=O)CC1C3O` (stereo not drawn)?
**A.** survivor count (dose: 128.0 mg/kg/injection, schedule: Q07DX002 (ip), vehicle: saline): 6 of 10 on day 20; survivor count (dose: 256.0 mg/kg/injection, schedule: Q07DX002 (ip), vehicle: Klucel (hydroxypropylcellulose) (HPC)): 0 of 10 on day 20; survivor count (dose: 256.0 mg/kg/injection, schedule: Q07DX002 (ip), vehicle: saline): 0 of 10 on day 20

**Q.** Which T/C (dose: 0.25 mg/kg/injection, schedule: Q07DX002 (ip), vehicle: saline with Tween-80, evaluated on day 21) does the source give for `COC(C(=O)C(O)C(C)O)C1Cc2cc3cc(OC4CC(OC(C)=O)C(OC5CC(O)C(OC)C(C)O5)C(C)O4)cc(O)c3c(O)c2C(=O)C1OC1CC(OC2CC(OC3CC(C)(O)C(OC(=O)C(C)C)C(C)O3)C(O)C(C)O2)C(O)C(C)O1` (stereo not drawn) here?
**A.** The T/C was 135 % of control.

**Q.** How did the survivor count (dose: 400.0 mg/kg/injection, schedule: Q07DX002 (ip), vehicle: saline) turn out when `OCC1OC(n2cnc3c(NO)nc(NO)nc32)C(O)C1O` (stereo not drawn) was run?
**A.** The survivor count was 3 of 8 on day 20.

**Q.** What does the source list for `O=NNc1ccccn1`?
**A.** T/C (dose: 6.25 mg/kg/injection, schedule: Q07DX002 (ip), vehicle: saline, evaluated on day 20): 137 % of control; survivor count (dose: 50.0 mg/kg/injection, schedule: Q07DX002 (ip), vehicle: saline): 0 of 10 on day 20; survivor count (dose: 100.0 mg/kg/injection, schedule: Q07DX002 (ip), vehicle: saline): 0 of 10 on day 20

**Q.** Which T/C (dose: 12.0 mg/kg/injection, schedule: Q07DX002 (ip), vehicle: distilled water + Tween-80, evaluated on day 20) does the source give for `CCCCCCCCCCS(=O)CC(CO)NC(=O)/C=C/c1c(C)[nH]c(=O)[nH]c1=O` (stereo not drawn) here?
**A.** Its T/C is 129 % of control.

**Q.** And the survivor count (dose: 96.0 mg/kg/injection, schedule: Q07DX002 (ip), vehicle: distilled water + Tween-80)?
**A.** Its survivor count is 0 of 10 on day 20.

**Q.** `O=C([CH-]C(=O)C(F)(F)F)c1ccccc1.O=C([CH-]C(=O)C(F)(F)F)c1ccccc1.O=C([CH-]C(=O)C(F)(F)F)c1ccccc1.O=C([CH-]C(=O)C(F)(F)F)c1ccccc1.[Eu+3].c1ccncc1` was tested. Which T/C [4] did it give?
**A.** Its T/C is 138 % of control.

**Q.** What about the T/C [5] of the same molecule?
**A.** The T/C was 130 % of control.

**Q.** `O=NN(CCCl)C(=O)Oc1ccc(OC(=O)N(CCCl)N=O)cc1` was tested. Which survivor count (dose: 100.0 mg/kg/injection, schedule: Q07DX002 (ip), vehicle: Klucel (hydroxypropylcellulose) (HPC)) did it give?
**A.** Its survivor count is 4 of 10 on day 20.

**Q.** `CN1CCc2c(c3ccccc3c3ccccc23)C1` was tested. Which T/C [4] did it give?
**A.** Its T/C is 131 % of control.

**Q.** What about the survivor count [6] of the same molecule?
**A.** The survivor count was 6 of 10 on day 20.

**Q.** Which T/C (dose: 25.0 mg/kg/injection, schedule: Q07DX002 (ip), vehicle: saline with Tween-80, evaluated on day 20) does the source give for `Cc1nn(CCO)c(C)c1N=[N+]([O-])c1c(C)nn(CCO)c1C` here?
**A.** The T/C was 134 % of control [8 of 10 alive on day 20].

**Q.** And the T/C [3]?
**A.** The T/C was 144 % of control.

**Q.** And the survivor count [6]?
**A.** Its survivor count is 4 of 10 on day 20.

**Q.** What about the survivor count [1] of the same molecule?
**A.** The survivor count was 0 of 10 on day 20.
